Data on 3 substances can be found in patent US9611293 (dated 2017).

Square brackets hold non-standard residues; d marks the D form. * marks the point of attachment. Arg(NO2) = N=C(NCCC[C@H](N)C(=O)O)N[N+](=O)[O-]; Cbz = O=C(OCc1ccccc1)*; Boc = CC(C)(C)OC(=O)*; OBn = c1ccc(CO*)cc1; Sar = CNCC(=O)O

The data set in a line: general procedure: solution-phase peptide synthesis; HATU/Et3N; DCC/HOBt. Particulars: coupling step, AcOH.

Regarding Boc-VYIHP[dA]-OBn, the step yield was determined as 71% and the “final HPLC purity” value came to 100%.
For Cbz-[Sar][Arg(NO2)]VYI-OH, in that order: 81% and 97.1%.
Take “Z-Sar-Arg(NO2)-Val-Tyr-Ile-His-Pro-(D)Ala-OBn”: the step yield was found to be 51% and the “final HPLC purity” value came to 98.4%.
